Experimental data reported in US6663846B1, “Devices and methods for monitoring drug therapy compliance” (priority 1998, dated 2003).

Columns and labels:
[1] = Low frequency modulation sensing in 0.5% intralipid with Ru complex PVA film as long lifetime reference; assay type: physicochemical
[2] = Detection of fluorophore emission through chicken skin over intralipid or chicken muscle; conditions: chicken skin over intralipid; also over chicken muscle

Row | Molecule | lowest concentration detected ([1]; 0.5% intralipid with Ru complex reference) | emission peak detected through chicken skin [2] | calculated fs (fractional intensity of short component) ([1]; 0.05 μM Rh800, global analysis) | observed modulation ([1]; 0.05 μM Rh800, near 5 MHz) | calculated fs (fractional intensity of short component) ([1]; 0.25 μM Rh800, global analysis) | observed modulation ([1]; 0.25 μM Rh800, near 5 MHz) | calculated fs (fractional intensity of short component) ([1]; 1.00 μM Rh800, global analysis) | observed modulation ([1]; 1.00 μM Rh800, near 5 MHz) | lowest concentration detected ([1]; 0.5% intralipid)
1 | CC1(C)C(/C=C/C=C/C=C/C=C2\N(CCCCS(=O)(=O)O)c3ccc4ccccc4c3C2(C)C)=[N+](CCCCS(=O)(=O)[O-])c2ccc3ccccc3c21 [IcG, indocyanine green] | 250 nm | 820 nm | – | – | – | – | – | – | –
2 | Rhodamine 800 [Rh800] | – | 710 nm | 0.184 | 0.185 | 0.534 | 0.525 | 0.803 | 0.812 | 50 nM
